PubChem BioAssay AID1259308, NCATS – 2017

Assay: 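Knock-downs that increase output of a recombinant reporter protein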 (primary screen)
Cell system: human HEK293 embryonic kidney cells stably expressing firefly luciferase (HEK-CMV-Luc2-Hygro)
Reagent: single siRNA against human genes, 0.8 pmol siRNA per well
Timing: 72 h
Measurement: 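Reporter luminescence and viable-cell signal on separate replicate plates, given as percent of non-targeting control and median/MAD z-scores, plus per-cell luciferase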
Scale: total luciferase, z-score and total luciferase, % of control: higher = more reporter protein produced
Rule for the call: 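An siRNA counts as active if its total luciferase robust z-score exceeds 3; genes with two or more such siRNAs out of three were retested with fresh siRNAs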
Meaning of the calls: active = raised luciferase; inactive = no rise
The whole screen tested about 59,000 reagents; below is an unselected part. About 1,510 of all reagents (2.6%) count as active. 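Calls use total luciferase alone and ignore viability, so some active siRNAs may act by altering cell number.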 Entries without a mark were called inactive. Reagents against one gene are numbered here. Not all columns of the deposit are shown.

gene knocked down	reagent no.	total luciferase, z-score	total luciferase, % of control
OR2W3	1	2.01	122
OR2W3	2	-0.132	79.3
OR2W3	3	-0.169	78.5
KIF23	1	-0.752	66.9
KIF23	2	0.128	84.4
KIF23	3	-0.228	77.4
CEP135	1	0.519	92.2
CEP135	2	0.456	90.9
CEP135	3	1.5	112
TBXT	1	0.584	93.5
TBXT	2	0.201	85.9
TBXT	3	-2.5	32.2
DHRS3	1	1.23	106
DHRS3	2	-1.45	53
DHRS3	3	-0.586	70.2
QRICH1	1	1.23	106
QRICH1	2	1.19	106
QRICH1	3	-0.465	72.6
KLHDC8A	1	3.19 (active)	145
KLHDC8A	2	0.748	96.8
KLHDC8A	3	-2.24	37.2
PHACTR4	1	-0.186	78.2
PHACTR4	2	-0.918	63.6
PHACTR4	3	-0.79	66.2
RIMKLA	1	0.384	89.5
RIMKLA	2	0.65	94.8
RIMKLA	3	-1.05	61.1
NLRC4	1	0.324	88.3
NLRC4	2	-0.499	72
NLRC4	3	0.971	101
CDKL5	1	0.042	82.7
CDKL5	2	0.336	88.6
CDKL5	3	-0.376	74.4
ARRDC2	1	-0.469	72.6
ARRDC2	2	-0.66	68.8
ARRDC2	3	0.0446	82.8
MSS51	1	0.305	88
MSS51	2	-0.603	69.9
MSS51	3	1.27	107

Records above whose gene name starts with P or p (3):
gene knocked down	reagent no.	total luciferase, z-score	total luciferase, % of control
PHACTR4	1	-0.186	78.2
PHACTR4	2	-0.918	63.6
PHACTR4	3	-0.79	66.2
